According to patent US7470537B2, “Adipose-derived stem cells and lattices” (priority 1999, dated 2008):
Entries after “also recorded” stand apart in the source; their conditions may differ. At least one compound was matched to its structure with a doubt left.

Test system: PLA cells
Test: Micromass culture chondrogenic nodule formation
Type: cell-based, human
Procedure: Chondrogenic differentiation was induced using a micromass culture protocol as previously described with some modifications (Ahrens, P B, et al., 1977 Dev. Biol. 60:69-82; Denker, A E 1995 Differentiation 59:25-34). Ten microliter drops of the PLA cellular suspension were placed in the center of each well of a 24-well tissue culture plate and on chamber slides. The cells were placed in an incubator at 37° C. at 5% CO2 for two hours to allow cell adherence. The pellets were gently overlaid with control medium and incubated overnight. The medium was replaced by chondrogenic medium [DMEM with 1% FBS supplemented with 10 ng/ml TGF-β1 (R&D Systems, Minneapolis, Minn.), 6.25 μg/ml insulin (Sigma), and 6.25 μg/ml transferrin (Sigma)]. The pellets were induced for six days in chondrogenic medium. At day six and thereafter, 50 μg/ml ascorbic acid-2-phosphate (Sigma) was added to the chondrogenic medium mixture. PLA pellets were harvested at days two, seven, and fourteen after initial induction for analysis. […] HFF cells were cultured as above under micromass and monolayer conditions as a negative control.
In order to assess the relationship of chondrogenic induction to PLA cell, micromass cultures were plated in chondrogenic medium at cell concentrations of 1×10^5, 1×10^6, 2.5×10^6, 5×10^6, 1×10^7, 2×10^7, and 5×10^7 cells per milliliter (cells/ml). […]

C[C@@H]1C[C@H]2[C@@H]3CCC4=CC(=O)C=C[C@]4(C)[C@@]3(F)[C@@H](O)C[C@]2(C)[C@@]1(O)C(=O)CO [Dex, dexamethasone]
size of PLA nodules (dexamethasone added to medium containing TGF-β1): larger spheroids; also recorded: increased the size of TGFβ1-induced PLA nodules
nodule formation by PLA cells (dexamethasone alone): did not form nodules; also recorded: Nodule formation was not observed
